## Primary screen of a compound library

The chains behind the UniProt entries cited, without tags or fusion partners.
UniProt E9BF75, entry or part of it: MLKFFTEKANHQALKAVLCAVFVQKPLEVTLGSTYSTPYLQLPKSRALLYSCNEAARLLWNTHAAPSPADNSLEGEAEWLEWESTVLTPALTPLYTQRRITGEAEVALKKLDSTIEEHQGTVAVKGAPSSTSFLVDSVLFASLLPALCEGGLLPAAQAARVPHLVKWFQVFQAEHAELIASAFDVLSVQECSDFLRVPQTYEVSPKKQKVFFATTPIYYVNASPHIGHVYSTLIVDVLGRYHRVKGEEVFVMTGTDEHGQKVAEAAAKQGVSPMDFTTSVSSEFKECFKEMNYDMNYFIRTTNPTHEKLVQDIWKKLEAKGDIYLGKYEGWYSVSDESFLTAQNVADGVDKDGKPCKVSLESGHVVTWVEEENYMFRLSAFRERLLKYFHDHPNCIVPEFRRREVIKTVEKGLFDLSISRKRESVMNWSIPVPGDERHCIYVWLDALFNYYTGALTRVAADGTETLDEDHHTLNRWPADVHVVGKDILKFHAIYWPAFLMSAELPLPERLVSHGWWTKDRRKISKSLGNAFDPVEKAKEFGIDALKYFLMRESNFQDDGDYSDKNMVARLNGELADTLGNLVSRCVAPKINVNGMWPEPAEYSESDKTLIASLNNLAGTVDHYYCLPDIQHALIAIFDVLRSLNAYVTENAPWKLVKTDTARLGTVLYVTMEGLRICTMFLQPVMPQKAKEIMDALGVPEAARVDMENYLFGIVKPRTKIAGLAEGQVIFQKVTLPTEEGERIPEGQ

Source: ChEMBL document CHEMBL3988442, “University of Dundee, Small-Polar-MMV Screening Library” (2021).

A: 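Methionyl-tRNA synthetase (putative), Leishmania donovani (UniProt E9BF75). Primary screen of methionyl-tRNA synthetase; the read-out is not stated. The test concentration is not given. Values are per cent inhibition. Of about 68,000 compounds tested this way, about 24 (0.035%) reached 50% or more in at least one test.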
B: 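Assay on Mycobacterium tuberculosis, filed only as a heat shock assay from Cornell; the read-out is not stated. The concentration is filed as 10 mM, unlikely as a test dose, so the dose is not known. Direction is inferred from retests: higher values go with stronger inhibition. About 69,000 compounds were tested under these conditions; 1.4% (about 930) showed 50% or more at least once.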

All values are in %. The record does not define 0% and 100%; most values in the screen are far below 50% and negative numbers occur (in some assays of this library far below -100). This is an unselected part of the compounds tested. A dash means the value is not listed here; it may have been measured.

structure,A,B
COc1cccc([C@@H]2CN(C3CCCC3)C[C@H]2C(=O)O)c1,13.1,14.6
O=C(c1cccs1)N1CCC2(CC1)CN(c1ccsc1)C(=O)CO2,12.94,5.681
CCS(=O)(=O)N(C)CCCNC(=O)c1cc(Cl)cc2cccnc12,19.24,12.72
Cc1ccc2c(c1)nc1n2[C@@H](CNC(=O)c2ccccn2)COC1,7.119,-53.47
Cc1nn(C)c(C)c1OCC(=O)N1CCCC1,15.96,16.26
O=C(O)C(F)(F)F.O=C1COC2(CCN(Cc3ccoc3)CC2)CN1c1ccsc1,-,4.197
CCOc1ccc(OCC)c(NCc2cc(C)on2)c1,12.81,-21.85
CCNC(=O)NCC(CC)(OC)c1ccccc1 (stereo not drawn),6.475,-3.902
Cc1nc(N(C)C)nc(N(C)Cc2cnccn2)c1C,19,6.861
O=C(Nc1cccc(F)c1)C1CCCN1c1nccs1 (stereo not drawn),12.72,8.306
COCCNC(=O)C[C@@H]1COC[C@H]2CN(C(=O)COC)C[C@@H]12,3.636,-
CCc1nc(CN(C)C(=O)NC(C)c2cccc(NC(C)=O)c2)cs1 (stereo not drawn),11.35,-5.361
NC(=O)CN(Cc1cccc(Oc2ccccc2)c1)C(=O)C1CC1,13.09,-9.752
CCCNC(=O)NC(C)c1ccccn1 (stereo not drawn),12.59,36.32
O=C1CC2(CCN(c3nncs3)C2)CN1c1ccc2c(c1)OCCO2 (stereo not drawn),8.122,-29.44
O=C(c1cnc(-c2ccco2)s1)N1CCCC1Cn1cccn1 (stereo not drawn),20.83,6.223
CSc1nsc(NC(=O)c2cc(C3CC3)nn2C)n1,14.33,16.92
COCCOC1CCN(C(C(=O)O)c2ccc(OC)c(F)c2)CC1 (stereo not drawn),20.63,7.406
O=C(C1CCOCC1)N1C[C@H]2CCC[C@@]2(COc2ccccn2)C1,3.268,-
[H][C@@]12CCN(C(=O)c3cc(C)on3)C[C@]1(c1nc(C)no1)CCO2,-,-39.69
CN(Cc1cccs1)C(=O)CS(=O)(=O)Cc1ccc(Cl)c(Cl)c1,2.083,-1.269
CC(C)N1CCCCC1c1nc(N(C)C)ncc1I.Cl (stereo not drawn),-,-21.57
COc1cccc2ccc(CN3CCN(c4ncccc4C)CC3)nc12,18.56,13.94
CCCc1nc(C)cc(N2CCC3(CCC(=O)N(CCO)C3)CC2)n1,9.253,12.83
CC(Nc1cccc(Oc2ccc(C#N)cn2)c1)C(=O)NC1CC1 (stereo not drawn),7.102,9.712
CN1C(=O)[C@H](OC(N)=O)[C@@H](C(=O)Nc2ccccc2)C12CCNCC2,13.42,31.45
CC(C)c1ncc(CN2C[C@@H](CN3CCCCC3)[C@@H](CO)C2)cn1,-,-9.521
COC(=O)c1ccc(N2CCC(C(O)c3ccccc3)CC2)nn1 (stereo not drawn),13.03,39.39
Cc1cc(-c2nccs2)nc(C2CCN(Cc3ccc(F)cc3)CC2)n1.Cl,-,-4.85
O[C@@H]1CCN(c2ccc3c(Cl)ccnc3c2F)C1,20.77,-3.628
CC(=O)N(C)CC(=O)NC1(c2ccc(F)cc2)CCCC1,8.273,7.124
COc1cccc(CNc2ccc(F)c(Cl)c2)c1O,10.3,-8.832
Cn1cc(S(=O)(=O)NC(=O)C2(c3ccccc3)CCC2)cn1,6.361,13.65
Cc1cccc(CN2CCc3ncnc(C4CC4)c3CC2)n1.O=C(O)C(F)(F)F,-,-23.65
Cc1nnc([C@@]23CCO[C@@H]2CCN(Cc2scnc2C)C3)o1,13.49,-
Cc1ccc(CN2CCc3[nH]nc(C(=O)N(C)C)c3C2)o1,13.33,-
O=C(NC1CCCCC1)c1ccc(COCC(F)(F)F)o1,0.7752,25.42
Cc1nc(C(=O)N2CCCC2c2c(C)nn(C)c2C)ccc1C#N (stereo not drawn),12.5,4.731
Cn1c(CO)cnc1SC(C(N)=O)c1ccccc1 (stereo not drawn),7.357,2.966
Cc1noc(C)c1Cc1nc(C2CC2)no1,-1.863,0.2122
Cn1cc(C[C@H]2[C@H](N3CCOCC3)CCN2C(=O)c2ccco2)cn1,8.014,-
CO[C@H]1CN(C(=O)c2ccccn2)[C@@H]2CCCO[C@H]12,9.091,-
CCn1cnnc1CNC(=O)NCC(C(C)C)N1CCC(C)CC1 (stereo not drawn),16.58,-5.213
Cc1nc(CNC(=O)N(Cc2ccccc2)CC(C)(C)O)oc1C,8.967,-3.938
CC(C)CNC(=O)C1(Cc2ccccc2-c2ccccc2)CCNC1 (stereo not drawn),16.72,-17.01
Cc1ccc2c(n1)N(CCn1cccn1)CCN(C1CCOCC1)C2,15.74,-
CC(C)(C)c1cnc(CN2CCN(c3ncccn3)CC2)o1,-1.902,-3.938
COc1ccc(CN(Cc2ccco2)Cc2[nH]cnc2C)c(OC)c1,12.26,-
CC(C)Sc1ncccc1C(=O)NCc1ccoc1,12.54,0.6887
Cc1csc(NC(=O)CN2CCCC(Cn3nc(C)nc3C)C2)n1 (stereo not drawn),18.42,-17.62
N#Cc1cccc(CS(=O)(=O)NCC(O)Cc2ccccc2)c1 (stereo not drawn),10.73,2.83
CCc1cc(N2CCC(Nc3ccc(Cl)cn3)CC2)ncn1,17.69,-13.21
CC(C)CCN1Cc2c(C(=O)N3CCCC3)nn(C)c2C1.O=C(O)C(F)(F)F,-,-0.5705
CCc1ncc(CNC2CC(=O)N(CCc3cccc(Cl)c3)C2)cn1 (stereo not drawn),8.5,-30.14
Cc1ncccc1NC(=O)[C@H]1C[C@@H]2CCN(Cc3ccsc3)C[C@H]2O1,16.83,-
Cc1nc2ccccc2nc1CN1CCn2nc(CCC(=O)O)cc2C1,24.08,-1.753
O=C1c2ccccc2C(=O)N1CC(O)Cn1nc(-c2cccs2)oc1=O (stereo not drawn),-4.775,-17.15
CSCCCN1CCC[C@]2(C(=O)O)CN(c3cnccn3)CC[C@@H]12,3.911,-
CC(C)NC(=O)C1CCN(c2nc3nc[nH]c(=O)c3s2)CC1,12.3,-0.2832
Cc1cnn(C2CCCN(C(=O)Cc3cn4ccsc4n3)C2)c1 (stereo not drawn),12.22,14.61
COc1cc(CNC(=O)N(Cc2ccc(F)cc2F)C2CC2)ccn1,15.64,-10.97
COCC(=O)N1CC[C@@H]2CN(Cc3cccc(Cl)c3)S(=O)(=O)[C@@H]2CC1,0.4184,-
Cc1occc1C(=O)NCc1ccc(N2CCCC(C(N)=O)C2)cc1 (stereo not drawn),11.89,2.671
[H][C@@]12CCN(c3ncccn3)C[C@@]1([H])[C@H](C(=O)N(C)C)CCO2,-,-0.9255
CS(=O)(=O)N1CC[C@H]2OCC[C@@]2(C(=O)NCC2CC2)C1,8.786,-
COc1ccc(CN)c(OC(F)F)c1,8.992,-

4 of the entries, repeated:

For Cc1nc2ccccc2nc1CN1CCn2nc(CCC(=O)O)cc2C1 the result was A: 24.08%; B: -1.753%.
For CS(=O)(=O)N1CC[C@H]2OCC[C@@]2(C(=O)NCC2CC2)C1 the result was A: 8.786%.
For NC(=O)CN(Cc1cccc(Oc2ccccc2)c1)C(=O)C1CC1 the result was A: 13.09%; B: -9.752%.
For CO[C@H]1CN(C(=O)c2ccccn2)[C@@H]2CCCO[C@H]12 the result was A: 9.091%.